# In the supplement of paper PMC8728848:
# Some of the results follow.
# B1: SUN4P (Saccharomyces cerevisiae), P53616 (protein)
# chain: MGSSHHHHHHSSGLVPRGSHNGSIYGDLADFSGPYEKFEDGTIPCGQFPSGQGVIPISWLDEGGWSGVENTDTSTGGSCKEGSYCSYACQPGMSKTQWPSDQPSDGRSIGGLLCKDGYLYRSNTDTDYLCEWGVDAAYVVSELSNDVAICLTDYPGTENMVIPTYVQAGDSLPLTVVDQDTYYTWQGLKTSAQYYVNNAGISVEDACVWGSSSSGVGNWAPLNFGAGSSDGVAYLSLIPNPNNGNALNFNVKIVAADDSSTVNGECIYENGSFSGGSDGCTVSVTAGKAKFVLYN
# Legend:
# Experiment in all cases: glycan array binding signal (z-score within array); higher = stronger binding
# Conditions in all cases: glycan notation: IUPAC condensed, linker removed; mutation: R276L
# [1] = molecular target: Fuc(a1-2)[GalNAc(b1-3)]Gal
# Outline: (§1)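 Glycan array data were curated from 3228 arrays in the Consortium for Functional Glycomics database and kept only where the protein sequence was available. Glycan names were converted to IUPAC-condensed notation, and columns mapping to the same glycan were averaged. The binding signal is a within-array Z-score, averaged across arrays of the same protein sequence at different concentrations or buffers and across linkers. Negative Z-scores can be read as non-binding.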
# [2] = molecular target: Fuc(a1-3)GlcNAc
# Outline: as §1
# [3] = molecular target: Fuc(a1-3)[Gal(b1-4)]Glc6S
# Outline: as §1
# [4] = molecular target: Fuc(a1-3)[Gal(b1-4)]GlcNAc
# Outline: as §1
# [5] = molecular target: Fuc(a1-3)[Gal(b1-4)]GlcNAc(b1-2)Man
# Outline: as §1
# [6] = molecular target: Fuc(a1-3)[Gal(b1-4)]GlcNAc(b1-2)Man(a1-3)[Fuc(a1-3)[Gal(b1-4)]GlcNAc(b1-2)Man(a1-6)]Man(b1-4)GlcNAc(b1-4)GlcNAc
# Outline: as §1
# [7] = molecular target: Fuc(a1-3)[Gal(b1-4)]GlcNAc(b1-2)Man(a1-3)[Fuc(a1-3)[Gal(b1-4)]GlcNAc(b1-2)Man(a1-6)]Man(b1-4)GlcNAc(b1-4)[Fuc(a1-6)]GlcNAc
# Outline: as §1
# [8] = molecular target: Fuc(a1-3)[Gal(b1-4)]GlcNAc(b1-3)Gal(b1-3)[Fuc(a1-4)]GlcNAc
# Outline: as §1
# [9] = molecular target: Fuc(a1-3)[Gal(b1-4)]GlcNAc(b1-3)Gal(b1-4)[Fuc(a1-3)]GlcNAc
# Outline: as §1
# [10] = molecular target: Fuc(a1-3)[Gal(b1-4)]GlcNAc(b1-3)Gal(b1-4)[Fuc(a1-3)]GlcNAc(b1-3)Gal(b1-4)[Fuc(a1-3)]GlcNAc
# Outline: as §1
# [11] = molecular target: Fuc(a1-3)[Gal(b1-4)]GlcNAc(b1-3)GalNAc
# Outline: as §1
# [12] = molecular target: Fuc(a1-3)[Gal(b1-4)]GlcNAc(b1-6)GalNAc
# Outline: as §1
# [13] = molecular target: Fuc(a1-3)[Gal(b1-4)]GlcNAc(b1-6)[Gal(b1-3)GlcNAc(b1-3)]Gal(b1-4)Glc
# Outline: as §1
# [14] = molecular target: Fuc(a1-3)[Gal(b1-4)]GlcNAc6S
# Outline: as §1
# [15] = molecular target: Fuc(a1-3)[Gal3S(b1-4)]Glc
# Outline: as §1
# [16] = molecular target: Fuc(a1-3)[Gal3S(b1-4)]GlcNAc
# Outline: as §1
# [17] = molecular target: Fuc(a1-3)[Gal3S(b1-4)]GlcNAc6S
# Outline: as §1
# [18] = molecular target: Fuc(a1-3)[GalNAc(b1-4)]GlcNAc
# Outline: as §1
# [19] = molecular target: Fuc(a1-3)[GalNAc(b1-4)]GlcNAc6S
# Outline: as §1
# [20] = molecular target: Fuc(a1-4)GlcNAc
# Outline: as §1
# [21] = molecular target: Fuc(b1-3)GlcNAc
# Outline: as §1
# [22] = molecular target: Gal(a1-2)Gal
# Outline: as §1
# [23] = molecular target: Gal(a1-3)Gal
# Outline: as §1
# [24] = molecular target: Gal(a1-3)Gal(b1-3)GlcNAc
# Outline: as §1
# [25] = molecular target: Gal(a1-3)Gal(b1-3)GlcNAc(b1-2)Man
# Outline: as §1
# [26] = molecular target: Gal(a1-3)Gal(b1-3)GlcNAc(b1-2)Man(a1-3)[Gal(a1-3)Gal(b1-3)GlcNAc(b1-2)Man(a1-6)]Man(b1-4)GlcNAc(b1-4)GlcNAc
# Outline: as §1
# [27] = molecular target: Gal(a1-3)Gal(b1-3)GlcNAc(b1-3)GalNAc
# Outline: as §1
# [28] = molecular target: Gal(a1-3)Gal(b1-3)GlcNAc(b1-6)GalNAc
# Outline: as §1
# [29] = molecular target: Gal(a1-3)Gal(b1-3)[Fuc(a1-4)]GlcNAc(b1-2)Man(a1-3)[Gal(a1-3)Gal(b1-3)[Fuc(a1-4)]GlcNAc(b1-2)Man(a1-6)]Man(b1-4)GlcNAc(b1-4)GlcNAc
# Outline: as §1
# [30] = molecular target: Gal(a1-3)Gal(b1-4)Glc
# Outline: as §1
# [31] = molecular target: Gal(a1-3)Gal(b1-4)GlcNAc
# Outline: as §1
# [32] = molecular target: Gal(a1-3)Gal(b1-4)GlcNAc(b1-2)Man
# Outline: as §1
# [33] = molecular target: Gal(a1-3)Gal(b1-4)GlcNAc(b1-2)Man(a1-3)[Gal(a1-3)Gal(b1-4)GlcNAc(b1-2)Man(a1-6)]Man(b1-4)GlcNAc(b1-4)GlcNAc
# Outline: as §1
# [34] = molecular target: Gal(a1-3)Gal(b1-4)GlcNAc(b1-3)GalNAc
# Outline: as §1
# [35] = molecular target: Gal(a1-3)Gal(b1-4)GlcNAc(b1-6)GalNAc
# Outline: as §1
# [36] = molecular target: Gal(a1-3)Gal(b1-4)[Fuc(a1-3)]GlcNAc
# Outline: as §1
# [37] = molecular target: Gal(a1-3)Gal(b1-4)[Fuc(a1-3)]GlcNAc(b1-2)Man(a1-3)[Gal(a1-3)Gal(b1-4)[Fuc(a1-3)]GlcNAc(b1-2)Man(a1-6)]Man(b1-4)GlcNAc(b1-4)GlcNAc
# Outline: as §1
binder,measurement,setting,value
B1,glycan array binding signal (z-score),[1],1.77
same,glycan array binding signal (z-score),[2],-0.655
same,glycan array binding signal (z-score),[3],-0.498
same,glycan array binding signal (z-score),[4],-0.538
same,glycan array binding signal (z-score),[5],0.998
same,glycan array binding signal (z-score),[6],-0.651
same,glycan array binding signal (z-score),[7],-1.23
same,glycan array binding signal (z-score),[8],-0.188
same,glycan array binding signal (z-score),[9],0.253
same,glycan array binding signal (z-score),[10],0.692
same,glycan array binding signal (z-score),[11],0.07
same,glycan array binding signal (z-score),[12],0.619
same,glycan array binding signal (z-score),[13],-0.206
same,glycan array binding signal (z-score),[14],0.572
same,glycan array binding signal (z-score),[15],-0.346
same,glycan array binding signal (z-score),[16],-0.386
same,glycan array binding signal (z-score),[17],-0.358
same,glycan array binding signal (z-score),[18],-0.53
same,glycan array binding signal (z-score),[19],-0.524
same,glycan array binding signal (z-score),[20],-0.981
same,glycan array binding signal (z-score),[21],0.466
same,glycan array binding signal (z-score),[22],-1.48
same,glycan array binding signal (z-score),[23],-0.653
same,glycan array binding signal (z-score),[24],-0.743
same,glycan array binding signal (z-score),[25],-0.15
same,glycan array binding signal (z-score),[26],0.555
same,glycan array binding signal (z-score),[27],1.05
same,glycan array binding signal (z-score),[28],-0.585
same,glycan array binding signal (z-score),[29],-0.029
same,glycan array binding signal (z-score),[30],-0.295
same,glycan array binding signal (z-score),[31],-0.685
same,glycan array binding signal (z-score),[32],-0.347
same,glycan array binding signal (z-score),[33],0.172
same,glycan array binding signal (z-score),[34],-0.405
same,glycan array binding signal (z-score),[35],-0.073
same,glycan array binding signal (z-score),[36],0.297
same,glycan array binding signal (z-score),[37],0.871

# Fetched one by one from the entries so far:
binder,measurement,setting,value
B1,glycan array binding signal (z-score),[13],-0.206
same,glycan array binding signal (z-score),[37],0.871
